Laboratory results from paper PMC3277884.
Results are given in words; binding and its absence hold for the method and conditions named. Binding seen in cells or lysates may run through a third protein. Some entries that bind do so weakly or less than the wild type.

By UniProt entry, the sequences of proteins in these tests, tags left out.
UniProt Q9CQJ4: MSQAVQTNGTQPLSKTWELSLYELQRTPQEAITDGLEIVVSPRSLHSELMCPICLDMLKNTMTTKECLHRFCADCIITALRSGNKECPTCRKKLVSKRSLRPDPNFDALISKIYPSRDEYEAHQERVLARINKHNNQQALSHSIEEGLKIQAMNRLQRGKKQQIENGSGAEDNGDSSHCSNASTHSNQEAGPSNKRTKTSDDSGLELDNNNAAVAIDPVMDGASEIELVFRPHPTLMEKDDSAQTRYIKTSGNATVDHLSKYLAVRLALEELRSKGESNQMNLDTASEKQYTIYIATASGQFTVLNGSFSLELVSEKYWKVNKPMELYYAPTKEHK
UniProt Q8VDS3: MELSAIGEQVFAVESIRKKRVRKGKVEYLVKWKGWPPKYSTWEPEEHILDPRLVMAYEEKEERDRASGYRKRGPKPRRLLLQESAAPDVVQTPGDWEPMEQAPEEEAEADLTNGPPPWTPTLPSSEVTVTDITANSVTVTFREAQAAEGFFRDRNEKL

Molecular target: Ring1b (mouse (endogenous in ESCs)) (UniProt Q9CQJ4)
Experiment: co-IP; IP with anti-Ring1b antibodies from cellular extracts of ESCs (d0) or ESCs subjected to neural differentiation (d5), immunoblots for Ring1b and Cbx7

binding: binds
Substance: Cbx7 (from UniProt Q8VDS3 1-158)
